US7041458B2, “Methods and reagents for determining protein S” (priority 1996, dated 2006)
No constants are given. Whether binding was seen depends on the method and setting. Some binding calls cover weakened binding; strength is not graded here.

Sequences of proteins named here, by UniProt entry; tags and fusion partners are left off. A change or cut given only in a name is not applied to a line headed by its entry.
UniProt P04003: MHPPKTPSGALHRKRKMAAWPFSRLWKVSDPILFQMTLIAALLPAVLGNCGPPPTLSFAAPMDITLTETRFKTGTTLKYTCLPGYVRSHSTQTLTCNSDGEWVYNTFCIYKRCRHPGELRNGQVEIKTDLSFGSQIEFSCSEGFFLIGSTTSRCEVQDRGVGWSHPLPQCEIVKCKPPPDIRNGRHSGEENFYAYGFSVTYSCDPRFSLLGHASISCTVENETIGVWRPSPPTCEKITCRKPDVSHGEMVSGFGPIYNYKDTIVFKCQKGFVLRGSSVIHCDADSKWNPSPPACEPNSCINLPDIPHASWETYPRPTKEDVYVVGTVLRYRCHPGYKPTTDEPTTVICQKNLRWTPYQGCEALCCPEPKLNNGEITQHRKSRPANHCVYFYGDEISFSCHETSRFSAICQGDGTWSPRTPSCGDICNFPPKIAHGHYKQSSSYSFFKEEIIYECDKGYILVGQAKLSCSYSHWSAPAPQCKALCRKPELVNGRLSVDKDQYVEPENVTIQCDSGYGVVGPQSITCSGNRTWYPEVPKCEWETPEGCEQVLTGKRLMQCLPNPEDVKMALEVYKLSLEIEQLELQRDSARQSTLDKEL
UniProt P20851: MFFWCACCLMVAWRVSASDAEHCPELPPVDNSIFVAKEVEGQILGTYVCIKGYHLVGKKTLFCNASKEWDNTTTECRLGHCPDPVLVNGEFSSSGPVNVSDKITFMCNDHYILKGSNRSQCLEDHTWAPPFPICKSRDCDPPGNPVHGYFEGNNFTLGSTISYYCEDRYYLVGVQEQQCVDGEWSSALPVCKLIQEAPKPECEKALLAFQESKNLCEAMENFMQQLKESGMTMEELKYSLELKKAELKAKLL

How the values were obtained:
[1] = biological target: T1, C4b-binding protein (C4BP), species containing the protein S binding β-chain, purified from human plasma (human) (UniProt P04003+P20851); assay: competition, equilibrium binding in microtiter wells: peptide against a trace of 125I-labelled human protein S on immobilised C4BP, TBS with 10 mM EDTA, 4 °C overnight, gamma counting
[2] = biological target: T1, C4b-binding protein (C4BP), species containing the protein S binding β-chain, purified from human plasma (human); assay: SPR (BIAcore) competition: 50 nM human protein S mixed with peptide, flowed over immobilised C4BP (8000 RU), HC buffer; percent protein S bound calculated from the response

Row | binding [1] | binding [2] | Binder
1 | binds | binds | SGIAQFHIDYNNVSSAEGWHVN [SL6 synthetic peptide (protein S residues 447-468)]
2 | binds | binds | LVTVEKGSYYPGSGIAQFHIDYNNVSSAEGWHVN [SL7 synthetic peptide (protein S residues 435-468)]
3 | binds | binds | EKGSYYPGSGIAQFHIDYNNVS [SL2 synthetic peptide (protein S residues 439-460)]
